Screening data, single-dose tests

Protein sequences, listed by entry. Tags and fused reporters are not part of them. Residues count along the entry.
UniProt A4I591, 1-473: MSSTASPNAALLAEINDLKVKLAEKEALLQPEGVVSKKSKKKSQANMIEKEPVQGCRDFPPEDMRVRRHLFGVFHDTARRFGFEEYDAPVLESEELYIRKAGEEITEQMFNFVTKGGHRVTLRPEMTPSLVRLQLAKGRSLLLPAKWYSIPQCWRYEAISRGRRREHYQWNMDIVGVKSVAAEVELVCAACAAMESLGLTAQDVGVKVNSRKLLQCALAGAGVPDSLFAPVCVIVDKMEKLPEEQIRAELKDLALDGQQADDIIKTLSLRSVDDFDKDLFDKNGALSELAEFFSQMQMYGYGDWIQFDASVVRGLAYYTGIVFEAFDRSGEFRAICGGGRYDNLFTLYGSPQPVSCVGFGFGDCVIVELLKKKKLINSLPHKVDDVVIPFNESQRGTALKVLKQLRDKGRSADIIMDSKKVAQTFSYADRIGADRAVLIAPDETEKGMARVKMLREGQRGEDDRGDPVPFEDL
UniProt P9WPC5, whole entry: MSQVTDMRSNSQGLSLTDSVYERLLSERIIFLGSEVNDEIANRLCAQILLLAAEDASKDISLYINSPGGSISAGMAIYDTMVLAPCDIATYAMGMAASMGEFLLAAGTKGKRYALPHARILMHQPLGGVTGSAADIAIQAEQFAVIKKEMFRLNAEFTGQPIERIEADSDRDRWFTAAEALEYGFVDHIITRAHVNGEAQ
UniProt P9WPC3, whole entry partner: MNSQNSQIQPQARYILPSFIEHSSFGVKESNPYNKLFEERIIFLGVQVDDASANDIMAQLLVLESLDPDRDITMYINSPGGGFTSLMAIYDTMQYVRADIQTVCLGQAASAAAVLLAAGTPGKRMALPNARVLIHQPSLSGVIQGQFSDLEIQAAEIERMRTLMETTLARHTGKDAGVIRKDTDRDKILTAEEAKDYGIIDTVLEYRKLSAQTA
UniProt Q4DA54, 1-478: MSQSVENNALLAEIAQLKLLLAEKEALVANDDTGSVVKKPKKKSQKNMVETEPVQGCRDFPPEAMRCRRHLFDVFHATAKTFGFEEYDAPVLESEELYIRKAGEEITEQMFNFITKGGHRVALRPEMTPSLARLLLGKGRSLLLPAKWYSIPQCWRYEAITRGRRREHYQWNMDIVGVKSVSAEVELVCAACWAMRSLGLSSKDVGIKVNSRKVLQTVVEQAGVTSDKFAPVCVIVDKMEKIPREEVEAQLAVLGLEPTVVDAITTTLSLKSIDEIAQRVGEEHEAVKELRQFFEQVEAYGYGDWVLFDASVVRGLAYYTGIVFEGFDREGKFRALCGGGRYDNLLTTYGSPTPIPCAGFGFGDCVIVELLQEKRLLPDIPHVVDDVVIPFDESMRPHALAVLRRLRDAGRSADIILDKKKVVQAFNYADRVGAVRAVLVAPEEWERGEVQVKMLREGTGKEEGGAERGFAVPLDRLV

Source: ChEMBL document CHEMBL3988442, “University of Dundee, Small-Polar-MMV Screening Library” (2021).

The filed quantity is “Percent Effect” (%).
The record does not define 0% and 100%; most values in the screen are far below 50% and negative numbers occur (in some assays of this library far below -100).
This is an unselected part of the compounds tested.
A dash means the value is not listed here; it may have been measured.

Toxoplasma: 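Assay of Toxoplasma gondii numbers, read through their beta-galactosidase reporter with a colour substrate. Tested at 10 µM. The record gives no direction; the compounds picked for IC50 retests had high values, so higher reads as fewer parasites. Size under these conditions: about 67,000 compounds, about 260 of them at 50% or above in at least one test.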
T. brucei: 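Whole-parasite assay of Trypanosoma brucei over 72 hours; the read-out is not stated. Compounds at 30 µM. Higher reads as stronger inhibition (inferred: compounds with an IC50 in retests scored well above the rest). Values scatter widely below zero; nearly all retest evidence comes from the higher of the two concentrations used. Size under these conditions: about 64,000 compounds, about 940 of them at 50% or above in at least one test.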
LiHisRS: 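Histidine-tRNA ligase, Leishmania infantum (UniProt A4I591). Enzyme assay of histidyl-tRNA synthetase; the read-out is not stated. Tested at 30 µM. Direction is inferred from retests: higher values go with stronger inhibition. The assay is labelled LdHisRS but filed under L. infantum. Of about 69,000 compounds tested this way, about 410 (0.6%) reached 50% or more in at least one test.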
ClpP1P2: 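Protease assay of ClpP1P2, read by the AMC dye that it sets free. Target: ClpP1P2, Mycobacterium tuberculosis (UniProt P9WPC5 and UniProt P9WPC3). Concentration: 50 µM. Direction is inferred from only a few compounds that gave an IC50; most scored high, so higher reads as stronger inhibition. Most other retested compounds had strongly negative values. Size under these conditions: about 69,000 compounds, about 10 of them at 50% or above in at least one test.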
TcHisRS: 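Histidine-tRNA ligase, Trypanosoma cruzi CL Brener (UniProt Q4DA54). Enzyme assay of histidyl-tRNA synthetase; the read-out is not stated. Compounds at 30 µM. Direction is inferred from retests: higher values go with stronger inhibition. Size under these conditions: about 69,000 compounds, about 31 of them at 50% or above in at least one test.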

SMILES | Toxoplasma | T. brucei | LiHisRS | ClpP1P2 | TcHisRS
COc1ncc(-c2nccn2CCN(C)C)cn1 | -6.463% | -18.92% | 11.54% | -2.941% | 6.667%
CNC(=O)CN1CCOCC12CCN(C(=O)c1ccc(C)cc1)CC2 | - | - | 13.76% | 0.01019% | 7.563%
O=C(O)C(F)(F)F.[H][C@@]12CCN(c3ncccn3)C[C@]1(COc1nccc(C)n1)CCO2 | -0.8679% | -12.38% | - | - | -
CC(C1CCN(C(=O)c2coc(CN3CCOCC3)c2)CC1)N(C)C (stereo not drawn) | -29.88% | -16.99% | 11.29% | -15.27% | -4.386%
CN1CCCC2(CC1)CCN(C(=O)CCc1ccccc1O)CC2 | - | 7.032% | 22.58% | 11.11% | 18.39%
CCC(C)N(Cc1ccncc1)C(=O)CCC(=O)OC (stereo not drawn) | 15.34% | -0.6414% | 8% | -6.413% | -2.941%
CNc1cccc(C2CCCN(C(=O)Cc3ccccc3)C2)n1 (stereo not drawn) | 6.191% | 12.2% | 16.49% | 7.477% | 4.444%
CCOc1ccnc(N2CCN(C(=O)c3cccnc3O)CC2)n1 | - | -26.03% | 19.1% | -5.497% | 6.015%
CN1CCCn2c(nc(CNC(=O)c3nccn3C)cc2=O)C1.O=C(O)C(F)(F)F.O=C(O)C(F)(F)F | -47.71% | - | - | - | -
CCC(C)(C)NC(=O)CN(C)C(c1cccc(F)c1)c1ccccn1 (stereo not drawn) | 1.482% | -7.415% | 21.92% | -13.25% | 3.053%
CC(=O)N1CCN(c2cc(C3CN(C(C)=O)CCO3)nc(C)n2)CC1 (stereo not drawn) | 3.393% | -12.46% | 8% | 1.31% | 4.494%
Fc1cccc(CN2CCN(Cc3cscn3)CC2)c1 | 3.243% | 23.73% | 13.22% | -10.86% | 3.361%
CCN(Cc1cnn(C)c1)S(=O)(=O)c1ccc(NC(=O)C(C)(C)C)cc1 | 33.28% | -34.4% | 24.19% | -15.66% | 0%
Cc1ccc(N2CCC3(CCN(C(=O)c4ccsc4)CC3)C2)nn1 | 5.693% | -0.9957% | 6.195% | 2.03% | 7.2%
Fc1cc(Cl)cnc1N1CCCC(c2nccn2Cc2ccccn2)C1 (stereo not drawn) | 40.03% | -84.12% | 9.836% | 6.616% | 1.288%
N#Cc1nc(COc2ccc3c(c2)OCO3)oc1N1CCCCCC1 | 17.75% | -23.76% | 2.632% | -17.52% | -1.754%
c1cncc(CN2CCCn3nnc(CN4CCCC4)c3C2)c1 | - | - | 24.69% | 9.389% | 3.067%
O=C(CC1CC1)N[C@@H]1CN(C(=O)c2ccoc2)C[C@@H]2CCCO[C@@H]21 | - | - | 8.108% | -2.22% | 6.63%
[H][C@@]12CCN(c3ncccn3)[C@]1([H])CC[C@H](C(=O)NC)O2 | -10.34% | -33.6% | - | - | -
Cc1ncsc1-c1nnc(C2CCN(Cc3ccccc3F)CC2)o1 | 2.384% | -22.5% | 13.04% | -7.294% | 2.198%
Cc1ccc(C(=O)O)cc1S(=O)(=O)N(C)c1cccc(C#N)c1 | -0.2387% | -23.44% | 11.97% | -15.81% | 9.189%
Cc1cncc(C(=O)N2C[C@H]3CCC[C@@]3(COc3ccccn3)C2)c1 | - | - | 16.36% | 6.286% | 0.8264%
CC(C)[C@@H]1CN(C(=O)NCc2ccco2)C[C@H]1N(C)C | 8.447% | -18.27% | 7.5% | 1.96% | -10.53%
Cc1cc(C(=O)N2CC[C@@H](N(C)C)[C@@H]2Cc2ccccc2)no1 | - | - | -796.1% | -2.959% | -336.9%
CCc1nnc(CS(=O)(=O)c2ccc(C)c(C)c2)n1C | -13.42% | 36.42% | 1.667% | 1.621% | 6.957%
Cc1cc(CN2CCCC2)cc(Oc2nc(C)cnc2C)c1 | 14.94% | -7.648% | 17.74% | -9.188% | -1.754%
O=C(NCc1ccco1)N1CCN(Cc2ccc3c(c2)CCO3)CC1 | 4.949% | 13.53% | 11.4% | -7.854% | 6.936%
Cc1ccc2c(c1)C(=O)NCC1(CCN(C(=O)c3cc(C)no3)CC1)O2 | 16.11% | 14.81% | 16% | -0.03451% | 2.247%
CNC(=O)[C@@H](c1ccccc1OC)N1CCC[C@H]1C(=O)NCCN(C)C | - | - | 27.78% | -20.5% | 3.483%
COC(=O)CN1CC(c2nc(Cc3ccccc3)no2)C1.O=C(O)C(=O)O | 1.204% | 101% | - | - | -
CCc1cnc(CN(C)C2CCN(CC(=O)Nc3nccs3)C2)o1 (stereo not drawn) | -6.702% | - | 16.95% | -11.72% | 2.857%
CCNC(=O)CCS(=O)(=O)Cc1ccn(-c2cccc(F)c2)n1 | 1.772% | -22.57% | 24.68% | -5.911% | -1.478%
OCC1(O)CCCN(Cc2noc(-c3ccccc3)n2)C1 (stereo not drawn) | -28.07% | -6.225% | 8.392% | -10.78% | 9.453%
O=C(NCc1ccccn1)NCC(c1ccco1)N1CCCCC1 (stereo not drawn) | -2.261% | -44.52% | 11.48% | -4.068% | 3.488%
CC(C)(C)c1nc(CN(Cc2cccs2)C2CCS(=O)(=O)C2)no1 (stereo not drawn) | -7.721% | 23.47% | 22.73% | 8.107% | 0%
CN1CCOC(CNCc2cccc(OCc3ccccn3)c2)C1 (stereo not drawn) | - | -14.98% | 1.124% | -10.87% | 3.008%
CC(C)(C)CC(NC(=O)c1nc(=O)[nH][nH]1)c1ccc(F)cc1 (stereo not drawn) | 4.207% | -46.74% | 15.49% | 7.979% | 15.92%
Cn1cnc2c(-c3cccnc3)nc(C3CCN(S(C)(=O)=O)CC3)cc21 | 6.168% | -27.62% | 12% | -0.3882% | 6.186%
O=C(N[C@@H]1CCN(c2ncc(Cl)cc2Cl)C[C@H]1O)c1cnccn1 | -12.52% | -24.86% | 2.778% | -7.365% | 4.082%
Cc1noc(CNC(=O)N2CCN(c3nc(C)c(C)s3)CC2)n1 | 10.33% | 6.946% | 20% | -12.12% | 5.83%
Cc1nnc(NCCn2nc(C)c(Cl)c2C)o1 | 0.3643% | 22.04% | 6.557% | -7.381% | 4%
Cc1cc(C)cc(CN2CCN(Cc3cc(C#N)n(C)c3)CC2=O)c1 | -11.98% | 3.01% | 21.51% | -8.05% | 6.173%
O=C(CCS(=O)(=O)C1CCCC1)N1CCCC1c1ccsc1 (stereo not drawn) | -5.126% | -15.07% | 20.99% | -12.36% | 3.125%
O=C(NC1CCCN(CCCc2ccccc2)C1)c1ccc(Cl)s1 (stereo not drawn) | 29.41% | -1.931% | -58.43% | -6.057% | 7.538%
Cc1ccccc1C1CCN(CCn2cc(-c3cccc(O)c3)nn2)C1 (stereo not drawn) | 3.449% | -51.15% | 8.571% | 3.911% | 6.494%
Cc1nc(O)cc(CCNC(=O)C2CC(=O)N(CC(C)C)C2)n1 (stereo not drawn) | 10.64% | -14.63% | 7.937% | -4.213% | 0.5128%
Cn1ncc2c(N3CCC(CCO)CC3)nc(C(C)(C)C)nc21 | 0.3309% | -3.201% | 8.602% | 2.435% | 6.173%
Cc1nn(CC(=O)n2cccn2)c(C)c1I | -1.566% | -52.48% | 16.49% | 8.986% | 0%
Cc1n[nH]c(C)c1NC(=O)Nc1cccnc1N1CCCC1 | 4.886% | -12.45% | 0.9009% | 9.777% | 5%
CCc1noc(CS(=O)(=O)Cc2nc(Cc3ccccc3)no2)n1 | -8.028% | -13.4% | 4.274% | 7.176% | 3.333%
CN(C)S(=O)(=O)N1CCOC(c2cccc(-c3cncnc3)n2)C1 (stereo not drawn) | 11.22% | 9.328% | 6.993% | -2.75% | 5.085%

For reference, 5 entries once more:

COc1ncc(-c2nccn2CCN(C)C)cn1 gave Toxoplasma: -6.463%; T. brucei: -18.92%; LiHisRS: 11.54%; ClpP1P2: -2.941%; TcHisRS: 6.667%.
CCC(C)(C)NC(=O)CN(C)C(c1cccc(F)c1)c1ccccn1 (stereo not drawn) gave Toxoplasma: 1.482%; T. brucei: -7.415%; LiHisRS: 21.92%; ClpP1P2: -13.25%; TcHisRS: 3.053%.
CNC(=O)[C@@H](c1ccccc1OC)N1CCC[C@H]1C(=O)NCCN(C)C gave LiHisRS: 27.78%; ClpP1P2: -20.5%; TcHisRS: 3.483%.
CC(C1CCN(C(=O)c2coc(CN3CCOCC3)c2)CC1)N(C)C (stereo not drawn) gave Toxoplasma: -29.88%; T. brucei: -16.99%; LiHisRS: 11.29%; ClpP1P2: -15.27%; TcHisRS: -4.386%.
CN1CCOC(CNCc2cccc(OCc3ccccn3)c2)C1 (stereo not drawn) gave T. brucei: -14.98%; LiHisRS: 1.124%; ClpP1P2: -10.87%; TcHisRS: 3.008%.